Assay results: the supplement of paper PMC10849652
This is one part of the list.

The chains behind the UniProt entries cited, without tags or fusion partners. Where a name states a change or a piece, a line headed by the entry shows the natural chain unless it says otherwise.
UniProt O96006: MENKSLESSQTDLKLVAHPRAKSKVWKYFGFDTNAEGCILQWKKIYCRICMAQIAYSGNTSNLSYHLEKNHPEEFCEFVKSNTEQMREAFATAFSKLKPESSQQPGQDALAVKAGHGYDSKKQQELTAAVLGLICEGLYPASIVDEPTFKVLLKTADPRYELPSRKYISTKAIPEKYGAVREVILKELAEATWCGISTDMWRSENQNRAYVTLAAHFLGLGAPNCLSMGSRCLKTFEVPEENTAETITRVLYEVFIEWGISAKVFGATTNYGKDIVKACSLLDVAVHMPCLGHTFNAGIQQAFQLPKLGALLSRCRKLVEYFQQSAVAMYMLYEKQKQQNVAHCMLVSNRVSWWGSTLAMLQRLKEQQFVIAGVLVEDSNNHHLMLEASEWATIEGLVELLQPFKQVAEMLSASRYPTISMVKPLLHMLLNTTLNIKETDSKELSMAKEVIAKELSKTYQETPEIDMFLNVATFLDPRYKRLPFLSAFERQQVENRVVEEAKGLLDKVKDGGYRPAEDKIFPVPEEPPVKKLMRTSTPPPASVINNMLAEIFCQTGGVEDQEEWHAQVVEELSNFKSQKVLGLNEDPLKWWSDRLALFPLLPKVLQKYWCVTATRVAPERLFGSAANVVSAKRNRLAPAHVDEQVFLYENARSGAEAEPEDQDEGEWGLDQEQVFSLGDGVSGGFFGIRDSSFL
UniProt Q9C0E2: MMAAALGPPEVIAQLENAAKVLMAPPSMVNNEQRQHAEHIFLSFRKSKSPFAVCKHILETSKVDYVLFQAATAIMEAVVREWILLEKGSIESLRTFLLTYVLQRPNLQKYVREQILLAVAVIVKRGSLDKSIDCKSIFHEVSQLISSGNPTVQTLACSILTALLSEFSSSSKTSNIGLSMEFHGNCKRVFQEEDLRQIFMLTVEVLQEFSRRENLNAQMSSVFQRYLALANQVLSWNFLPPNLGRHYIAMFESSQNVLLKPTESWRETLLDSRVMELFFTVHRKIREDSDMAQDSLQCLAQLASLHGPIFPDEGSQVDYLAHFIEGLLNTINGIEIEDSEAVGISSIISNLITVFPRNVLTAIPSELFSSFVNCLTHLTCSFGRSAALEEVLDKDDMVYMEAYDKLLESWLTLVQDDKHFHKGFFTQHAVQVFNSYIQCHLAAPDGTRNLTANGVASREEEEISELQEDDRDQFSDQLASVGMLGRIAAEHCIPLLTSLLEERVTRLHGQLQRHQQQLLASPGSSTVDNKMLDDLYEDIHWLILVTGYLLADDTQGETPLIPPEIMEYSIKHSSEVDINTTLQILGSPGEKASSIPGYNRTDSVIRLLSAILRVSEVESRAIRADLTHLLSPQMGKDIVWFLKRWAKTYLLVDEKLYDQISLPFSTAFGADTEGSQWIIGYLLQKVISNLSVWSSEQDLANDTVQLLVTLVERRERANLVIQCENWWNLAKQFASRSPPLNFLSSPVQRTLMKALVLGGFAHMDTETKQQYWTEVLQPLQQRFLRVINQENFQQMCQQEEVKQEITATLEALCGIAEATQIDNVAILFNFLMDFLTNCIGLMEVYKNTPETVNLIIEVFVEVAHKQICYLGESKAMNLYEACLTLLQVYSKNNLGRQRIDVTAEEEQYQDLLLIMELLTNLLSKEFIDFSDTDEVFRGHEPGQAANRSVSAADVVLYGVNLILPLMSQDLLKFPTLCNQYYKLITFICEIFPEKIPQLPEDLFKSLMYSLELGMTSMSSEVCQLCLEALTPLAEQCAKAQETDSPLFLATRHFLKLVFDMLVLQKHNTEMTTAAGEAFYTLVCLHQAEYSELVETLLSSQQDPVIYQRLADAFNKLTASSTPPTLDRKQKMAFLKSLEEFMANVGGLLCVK
UniProt Q86U90: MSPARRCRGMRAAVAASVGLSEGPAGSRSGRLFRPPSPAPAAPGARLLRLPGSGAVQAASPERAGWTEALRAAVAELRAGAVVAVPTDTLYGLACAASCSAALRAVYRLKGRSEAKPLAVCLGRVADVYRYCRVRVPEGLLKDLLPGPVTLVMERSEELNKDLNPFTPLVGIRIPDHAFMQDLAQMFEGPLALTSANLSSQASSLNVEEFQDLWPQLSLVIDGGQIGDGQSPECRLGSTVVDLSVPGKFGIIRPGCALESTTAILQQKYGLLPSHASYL
UniProt O43670: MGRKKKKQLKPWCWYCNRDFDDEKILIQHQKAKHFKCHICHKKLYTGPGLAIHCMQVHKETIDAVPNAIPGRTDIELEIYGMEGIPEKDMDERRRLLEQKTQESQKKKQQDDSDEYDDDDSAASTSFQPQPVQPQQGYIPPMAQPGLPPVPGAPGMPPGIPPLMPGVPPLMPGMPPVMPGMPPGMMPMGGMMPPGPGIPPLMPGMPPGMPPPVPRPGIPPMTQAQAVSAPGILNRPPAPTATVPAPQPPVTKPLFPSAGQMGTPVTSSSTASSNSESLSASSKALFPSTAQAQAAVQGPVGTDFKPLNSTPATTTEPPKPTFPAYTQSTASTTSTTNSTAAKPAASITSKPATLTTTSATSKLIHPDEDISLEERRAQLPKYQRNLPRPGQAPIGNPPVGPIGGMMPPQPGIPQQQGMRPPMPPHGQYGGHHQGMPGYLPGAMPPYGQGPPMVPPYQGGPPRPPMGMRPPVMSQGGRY
UniProt Q86WB0: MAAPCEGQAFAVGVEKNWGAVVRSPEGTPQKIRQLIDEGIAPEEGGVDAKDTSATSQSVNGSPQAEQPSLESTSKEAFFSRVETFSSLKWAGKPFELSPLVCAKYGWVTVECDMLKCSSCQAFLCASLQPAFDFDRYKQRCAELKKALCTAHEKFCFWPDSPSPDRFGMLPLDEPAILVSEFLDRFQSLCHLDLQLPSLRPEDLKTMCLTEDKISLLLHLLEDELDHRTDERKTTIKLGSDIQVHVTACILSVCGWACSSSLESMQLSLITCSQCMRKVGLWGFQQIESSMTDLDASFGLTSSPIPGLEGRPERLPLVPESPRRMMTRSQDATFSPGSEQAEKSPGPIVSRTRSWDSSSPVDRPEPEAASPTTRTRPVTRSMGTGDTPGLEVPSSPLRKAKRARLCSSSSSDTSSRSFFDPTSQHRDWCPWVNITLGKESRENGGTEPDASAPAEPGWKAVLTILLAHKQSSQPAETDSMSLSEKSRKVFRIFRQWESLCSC
UniProt P25490, whole entry, looked up: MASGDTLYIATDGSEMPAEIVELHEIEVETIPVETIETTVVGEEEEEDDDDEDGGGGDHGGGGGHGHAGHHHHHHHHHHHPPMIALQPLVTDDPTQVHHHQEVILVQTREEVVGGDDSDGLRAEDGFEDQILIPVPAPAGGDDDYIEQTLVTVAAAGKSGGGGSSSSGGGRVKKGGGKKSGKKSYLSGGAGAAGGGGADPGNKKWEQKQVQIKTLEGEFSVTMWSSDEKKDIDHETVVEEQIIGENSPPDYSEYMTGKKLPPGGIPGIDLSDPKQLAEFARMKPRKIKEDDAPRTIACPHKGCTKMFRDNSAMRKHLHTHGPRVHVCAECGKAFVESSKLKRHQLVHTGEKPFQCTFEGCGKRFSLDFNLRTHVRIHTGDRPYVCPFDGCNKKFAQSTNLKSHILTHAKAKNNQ
UniProt Q9H8U3: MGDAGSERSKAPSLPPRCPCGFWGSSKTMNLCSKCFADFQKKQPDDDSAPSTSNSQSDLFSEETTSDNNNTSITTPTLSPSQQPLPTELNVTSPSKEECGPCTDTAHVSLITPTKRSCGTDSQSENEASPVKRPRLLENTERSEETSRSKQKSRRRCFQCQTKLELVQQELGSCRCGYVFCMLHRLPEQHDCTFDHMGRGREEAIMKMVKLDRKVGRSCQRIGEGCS
UniProt Q8IZH2: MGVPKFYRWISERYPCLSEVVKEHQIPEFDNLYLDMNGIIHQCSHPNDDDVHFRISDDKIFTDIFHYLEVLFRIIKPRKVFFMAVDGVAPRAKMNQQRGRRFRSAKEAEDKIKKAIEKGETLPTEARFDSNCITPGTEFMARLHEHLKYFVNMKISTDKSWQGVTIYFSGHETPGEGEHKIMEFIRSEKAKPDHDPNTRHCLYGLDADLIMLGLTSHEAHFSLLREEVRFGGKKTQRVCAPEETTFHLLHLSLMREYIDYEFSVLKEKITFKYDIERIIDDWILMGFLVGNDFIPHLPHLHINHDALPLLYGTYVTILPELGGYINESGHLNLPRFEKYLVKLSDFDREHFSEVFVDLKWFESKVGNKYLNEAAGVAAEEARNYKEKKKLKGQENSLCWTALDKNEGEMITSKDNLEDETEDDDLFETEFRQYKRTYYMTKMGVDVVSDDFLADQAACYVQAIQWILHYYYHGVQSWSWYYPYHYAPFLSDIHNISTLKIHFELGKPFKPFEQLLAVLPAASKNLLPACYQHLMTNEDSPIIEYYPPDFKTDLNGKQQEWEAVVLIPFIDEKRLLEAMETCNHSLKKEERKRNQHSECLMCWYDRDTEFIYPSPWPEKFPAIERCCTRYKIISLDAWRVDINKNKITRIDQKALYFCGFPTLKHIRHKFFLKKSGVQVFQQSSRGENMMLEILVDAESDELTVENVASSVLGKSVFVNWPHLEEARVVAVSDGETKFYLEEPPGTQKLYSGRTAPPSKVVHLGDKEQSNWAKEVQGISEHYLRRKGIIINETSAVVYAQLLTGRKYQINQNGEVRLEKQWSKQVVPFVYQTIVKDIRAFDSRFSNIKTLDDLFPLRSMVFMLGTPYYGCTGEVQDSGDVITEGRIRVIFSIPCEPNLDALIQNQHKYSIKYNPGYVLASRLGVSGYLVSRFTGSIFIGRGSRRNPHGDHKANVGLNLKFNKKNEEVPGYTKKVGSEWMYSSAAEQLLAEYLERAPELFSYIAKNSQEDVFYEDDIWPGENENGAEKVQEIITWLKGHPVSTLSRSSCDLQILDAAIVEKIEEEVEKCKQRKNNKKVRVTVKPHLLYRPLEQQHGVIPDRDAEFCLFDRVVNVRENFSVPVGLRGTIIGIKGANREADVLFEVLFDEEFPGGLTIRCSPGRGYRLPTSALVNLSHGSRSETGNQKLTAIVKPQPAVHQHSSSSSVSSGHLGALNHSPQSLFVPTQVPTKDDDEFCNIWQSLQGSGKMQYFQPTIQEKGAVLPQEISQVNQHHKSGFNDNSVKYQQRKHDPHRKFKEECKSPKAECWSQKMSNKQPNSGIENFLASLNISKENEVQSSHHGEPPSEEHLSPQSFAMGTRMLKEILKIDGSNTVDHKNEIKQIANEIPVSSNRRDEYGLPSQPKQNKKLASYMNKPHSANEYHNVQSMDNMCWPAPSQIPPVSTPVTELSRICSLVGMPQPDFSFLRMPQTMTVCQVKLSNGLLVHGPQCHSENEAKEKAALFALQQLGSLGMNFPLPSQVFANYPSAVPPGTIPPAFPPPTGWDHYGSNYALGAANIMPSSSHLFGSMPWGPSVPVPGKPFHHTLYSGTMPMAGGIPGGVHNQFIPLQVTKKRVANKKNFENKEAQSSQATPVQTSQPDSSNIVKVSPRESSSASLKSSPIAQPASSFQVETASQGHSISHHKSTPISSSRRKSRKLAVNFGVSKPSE
UniProt Q86T24: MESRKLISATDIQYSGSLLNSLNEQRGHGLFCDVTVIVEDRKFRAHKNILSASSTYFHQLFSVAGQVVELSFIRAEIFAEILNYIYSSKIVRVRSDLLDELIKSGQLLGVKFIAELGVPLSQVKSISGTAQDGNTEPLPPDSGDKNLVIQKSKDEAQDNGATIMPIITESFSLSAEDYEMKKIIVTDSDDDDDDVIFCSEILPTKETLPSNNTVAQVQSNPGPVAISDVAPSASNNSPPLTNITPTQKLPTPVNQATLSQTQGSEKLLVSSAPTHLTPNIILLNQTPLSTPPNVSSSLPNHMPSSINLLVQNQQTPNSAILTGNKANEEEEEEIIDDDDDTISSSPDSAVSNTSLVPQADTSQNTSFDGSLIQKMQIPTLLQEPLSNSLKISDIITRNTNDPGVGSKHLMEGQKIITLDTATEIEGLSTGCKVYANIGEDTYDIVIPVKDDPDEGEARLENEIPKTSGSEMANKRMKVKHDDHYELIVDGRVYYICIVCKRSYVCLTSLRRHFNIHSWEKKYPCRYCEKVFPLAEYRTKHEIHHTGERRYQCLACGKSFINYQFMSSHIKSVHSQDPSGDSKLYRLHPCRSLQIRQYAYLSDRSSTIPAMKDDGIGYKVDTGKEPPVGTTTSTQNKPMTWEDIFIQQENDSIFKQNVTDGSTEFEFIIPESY
UniProt O95070: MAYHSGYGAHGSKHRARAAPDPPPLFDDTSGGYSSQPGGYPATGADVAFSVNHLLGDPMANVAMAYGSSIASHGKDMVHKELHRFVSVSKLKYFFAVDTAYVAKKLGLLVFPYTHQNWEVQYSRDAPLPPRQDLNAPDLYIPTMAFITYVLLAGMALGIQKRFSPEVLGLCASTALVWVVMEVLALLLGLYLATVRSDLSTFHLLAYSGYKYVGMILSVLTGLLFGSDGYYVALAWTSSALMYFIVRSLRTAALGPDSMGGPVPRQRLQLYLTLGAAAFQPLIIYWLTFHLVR
UniProt P62699: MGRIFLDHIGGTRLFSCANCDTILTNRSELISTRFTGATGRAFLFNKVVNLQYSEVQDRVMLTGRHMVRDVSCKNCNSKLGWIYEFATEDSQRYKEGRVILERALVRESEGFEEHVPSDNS

Assays:
Experiment in all cases: log2 fold change, soluble protein after heating vs DMSO (PISA); higher = thermal stabilisation; K562 cells, 10 uM, 30 min; active = over 0.2 and 3.5 SD of the protein, either way, in both replicates (recomputed)
saracatinib = compound: CN1CCN(CCOc2cc(OC3CCOCC3)c3c(Nc4c(Cl)ccc5c4OCO5)ncnc3c2)CC1 [saracatinib]
In short: (§1)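 K562 cells at 2×10^6 cells/mL were treated with 10 μM compound for 30 min. Aliquots were heated for 3 min across 48°C-58°C, pooled, and extracted in PBS with 0.5% NP-40 at 4°C; soluble protein was the supernatant after 21,000xg for 90 min. Soluble protein was quantified by TMTpro 16plex LC-MS/MS with channel sums equalised, and reported as log2 fold change in thermal stability against DMSO controls, with values from duplicates.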

sotrastaurin = compound: CN1CCN(c2nc(C3=C(c4c[nH]c5ccccc45)C(=O)NC3=O)c3ccccc3n2)CC1 [sotrastaurin]
In short: as §1

alvocidib = compound: CN1CC[C@H](c2c(O)cc(O)c3c(=O)cc(-c4ccccc4Cl)oc23)[C@H](O)C1 [alvocidib]
In short: as §1

Tubastatin A = compound: CN1CCc2c(c3ccccc3n2Cc2ccc(C(=O)NO)cc2)C1 [Tubastatin A]
In short: as §1

[1] = compound: CNC(=O)C1=CC=CC=C1NC2=NC(=NC=C2Cl)NC3=C(C=C(C=C3)N4CCOCC4)OC
In short: as §1

defactinib = compound: CNC(=O)c1ccc(Nc2ncc(C(F)(F)F)c(NCc3nccnc3N(C)S(C)(=O)=O)n2)cc1 [defactinib]
In short: as §1

rucaparib = compound: CNCc1ccc(-c2[nH]c3cc(F)cc4c3c2CCNC4=O)cc1 [rucaparib]
In short: as §1

[2] = compound: CNc1nc(-c2ccc3c(N)n[nH]c3c2)cc(N2C[C@@H](C(=O)NC3CCCCC3)CC[C@H]2C)n1
In short: as §1

encorafenib = compound: COC(=O)N[C@@H](C)CNc1nccc(-c2cn(C(C)C)nc2-c2cc(Cl)cc(NS(C)(=O)=O)c2F)n1 [encorafenib]
In short: as §1

[3] = compound: COC(=O)[C@H](CCSC)NC(=O)C1=C(C=C(C=C1)NC[C@H](CS)N)C2=CC=CC=C2
In short: as §1

[4] = compound: COC1=CC=C(C=C1)CN2C=CC3=C2C=C(C=C3)C(=O)NO
In short: as §1

filanesib = compound: CON(C)C(=O)N1N=C(c2cc(F)ccc2F)S[C@@]1(CCCN)c1ccccc1 [filanesib]
In short: as §1

zotarolimus = compound: CO[C@H]1C[C@@H]2CC[C@@H](C)[C@@](O)(O2)C(=O)C(=O)N2CCCC[C@H]2C(=O)O[C@H]([C@H](C)C[C@@H]2CC[C@H](n3cnnn3)[C@H](OC)C2)CC(=O)[C@H](C)/C=C(\C)[C@@H](O)[C@@H](OC)C(=O)[C@H](C)C[C@H](C)/C=C/C=C/C=C/1C [zotarolimus]
In short: as §1

alisertib = compound: COc1cc(Nc2ncc3c(n2)-c2ccc(Cl)cc2C(c2c(F)cccc2OC)=NC3)ccc1C(=O)O [alisertib]
In short: as §1

[5] = compound: COc1cc2nc(-c3cc(F)ccc3O)nc(N[C@@H]3CNC[C@H]3C(C)(C)O)c2cc1OC
In short: as §1

gefitinib = compound: COc1cc2ncnc(Nc3ccc(F)c(Cl)c3)c2cc1OCCCN1CCOCC1 [gefitinib]
In short: as §1

[6] = compound: COc1cccc2cc(-c3nc([C@H]4CC[C@H](C(=O)O)CC4)n4ncnc(N)c34)[nH]c12
In short: as §1

lapatinib = compound: CS(=O)(=O)CCNCc1ccc(-c2ccc3ncnc(Nc4ccc(OCc5cccc(F)c5)c(Cl)c4)c3c2)o1 [lapatinib]
In short: as §1

idasanutlin = compound: COc1cc(C(=O)O)ccc1NC(=O)[C@@H]1N[C@@H](CC(C)(C)C)[C@](C#N)(c2ccc(Cl)cc2F)[C@H]1c1cccc(Cl)c1F [idasanutlin]
In short: as §1

pictilisib = compound: CS(=O)(=O)N1CCN(Cc2cc3nc(-c4cccc5[nH]ncc45)nc(N4CCOCC4)c3s2)CC1 [pictilisib]
In short: as §1

Measured: log2 fold change

ZFYVE9 (UniProt O95405)
inactive: saracatinib 0.075 | sotrastaurin 0.178 | alvocidib 0.042 | Tubastatin A -0.078 | [1] 0.109 | defactinib 0.003 | rucaparib -0.278 | [2] -0.004 | encorafenib 0.162 | [3] -0.096 | [4] 0.054 | filanesib -0.205 | zotarolimus 0.061 | alisertib -0.018 | [5] -0.139 | gefitinib 0.06 | [6] -0.01 | lapatinib 0.005

ZDHHC5 (UniProt Q9C0B5)
inactive: saracatinib 0.034 | sotrastaurin -0.069 | Tubastatin A 0.051 | [1] 0.006 | defactinib -0.097 | rucaparib 0.086 | [2] 0.011 | encorafenib -0.028 | [3] 0.054 | [4] -0.01 | filanesib 0.048 | zotarolimus -0.085 | idasanutlin -0.111 | alisertib -0.107 | [5] 0.117 | gefitinib 0.031 | [6] -0.007 | lapatinib -0.072 | pictilisib 0.047

ZBED1 (UniProt O96006)
inactive: saracatinib 0.077 | sotrastaurin -0.078 | alvocidib -0.133 | Tubastatin A 0.05 | [2] -0.126 | filanesib 0.088 | zotarolimus -0.143 | idasanutlin -0.036 | [5] -0.038 | gefitinib -0.172 | lapatinib 0.031

XPO4 (UniProt Q9C0E2)
inactive: saracatinib 0.063 | sotrastaurin -0.004 | alvocidib -0.009 | Tubastatin A -0.036 | [1] 0.012 | defactinib -0.046 | rucaparib -0.02 | [2] -0.043 | encorafenib 0.007 | [3] 0.006 | [4] -0.005 | filanesib -0.069 | zotarolimus -0.012 | idasanutlin -0.054 | alisertib -0.027 | [5] -0.012 | gefitinib -0.03 | [6] 0.057 | lapatinib 0.012 | pictilisib 0.029

YRDC (UniProt Q86U90)
inactive: saracatinib -0.007 | sotrastaurin 0.027 | alvocidib -0.046 | Tubastatin A 0.054 | [1] -0.029 | defactinib -0.019 | rucaparib -0.006 | [2] -0.041 | encorafenib -0.015 | [3] 0.013 | [4] 0.031 | filanesib -0.046 | zotarolimus -0.016 | idasanutlin -0.061 | alisertib -0.009 | [5] -0.031 | gefitinib -0.002 | [6] 0.033 | lapatinib -0.033 | pictilisib 0.002

ZNF143 (UniProt P52747)
inactive: saracatinib 0.094 | sotrastaurin -0.031 | Tubastatin A -0.031 | [1] -0.084 | defactinib -0.171 | rucaparib -0.008 | [2] -0.118 | encorafenib 0.014 | [3] 0.013 | [4] -0.035 | filanesib 0.024 | zotarolimus 0.067 | idasanutlin 0.07 | alisertib -0.05 | [5] -0.19 | gefitinib -0.098 | [6] 0.05 | lapatinib -0.011 | pictilisib -0.06

ZNF207 isoform 2 (UniProt O43670)
inactive: saracatinib -0.133 | sotrastaurin -0.057 | alvocidib 0.016 | Tubastatin A 0.013 | [1] 0.06 | defactinib -0.083 | rucaparib -0.078 | [2] 0.054 | encorafenib 0.005 | [3] -0.114 | filanesib 0.044 | zotarolimus -0.333 | idasanutlin -0.083 | alisertib -0.038 | [5] -0.223 | gefitinib -0.096 | [6] 0.18 | lapatinib -0.276 | pictilisib -0.208

XPOT (UniProt O43592)
inactive: saracatinib 0.017 | sotrastaurin -0.102 | Tubastatin A 0.026 | [1] 0.076 | defactinib -0.022 | rucaparib 0.005 | [2] -0.116 | encorafenib 0.076 | [3] -0.044 | [4] 0.011 | filanesib -0.052 | zotarolimus 0.022 | idasanutlin -0.073 | alisertib -0.059 | [5] 0.033 | gefitinib -0.023 | [6] -0.046 | lapatinib -0.028 | pictilisib 0.023

ZC3HC1 (UniProt Q86WB0)
inactive: saracatinib 0.024 | sotrastaurin -0.178 | Tubastatin A 0.07 | [1] 0.067 | defactinib -0.227 | rucaparib -0.047 | [2] 0.104 | encorafenib 0.05 | [3] -0.093 | [4] 0.13 | filanesib -0.042 | zotarolimus 0.052 | idasanutlin -0.012 | alisertib 0.024 | [5] 0.013 | gefitinib 0.004 | [6] 0.032 | lapatinib 0 | pictilisib -0.003

ZMYM3 (UniProt Q14202)
inactive: saracatinib 0.098 | sotrastaurin 0.027 | Tubastatin A -0.028 | [1] 0 | defactinib -0.013 | rucaparib 0.049 | [2] -0.004 | encorafenib -0.032 | [3] 0.035 | [4] 0 | filanesib 0.012 | zotarolimus 0.093 | idasanutlin 0 | alisertib 0.057 | [5] -0.045 | gefitinib 0.034 | [6] 0.001 | lapatinib 0.007 | pictilisib -0.022

Fetched one by one from above (2):
ZNF143 (UniProt P52747)
inactive: saracatinib 0.094 | sotrastaurin -0.031 | Tubastatin A -0.031 | [1] -0.084 | defactinib -0.171 | rucaparib -0.008 | [2] -0.118 | encorafenib 0.014 | [3] 0.013 | [4] -0.035 | filanesib 0.024 | zotarolimus 0.067 | idasanutlin 0.07 | alisertib -0.05 | [5] -0.19 | gefitinib -0.098 | [6] 0.05 | lapatinib -0.011 | pictilisib -0.06

ZC3HC1 (UniProt Q86WB0)
inactive: saracatinib 0.024 | sotrastaurin -0.178 | Tubastatin A 0.07 | [1] 0.067 | defactinib -0.227 | rucaparib -0.047 | [2] 0.104 | encorafenib 0.05 | [3] -0.093 | [4] 0.13 | filanesib -0.042 | zotarolimus 0.052 | idasanutlin -0.012 | alisertib 0.024 | [5] 0.013 | gefitinib 0.004 | [6] 0.032 | lapatinib 0 | pictilisib -0.003

Additional entries

ZFPL1 (UniProt O95159)
inactive: saracatinib 0.016 | sotrastaurin 0.003 | Tubastatin A -0.025 | [1] 0.061 | defactinib -0.083 | rucaparib 0.021 | [2] -0.031 | encorafenib -0.026 | [3] -0.007 | [4] 0.074 | filanesib -0.001 | zotarolimus 0.006 | idasanutlin -0.026 | alisertib 0.014 | [5] 0.099 | gefitinib 0.065 | [6] -0.039 | lapatinib -0.035 | pictilisib 0.173

YY1 (UniProt P25490)
inactive: saracatinib 0.047 | sotrastaurin -0.092 | Tubastatin A -0.011 | [1] -0.046 | rucaparib -0.05 | [2] -0.08 | encorafenib 0.066 | [3] 0.014 | [4] 0.069 | filanesib -0.006 | zotarolimus -0.01 | idasanutlin 0.077 | alisertib -0.062 | gefitinib -0.076 | [6] 0.009 | lapatinib -0.023 | pictilisib -0.021
active: defactinib -0.299 | [5] -0.268

ZFAND3 (UniProt Q9H8U3)
inactive: saracatinib 0.022 | sotrastaurin 0.046 | alvocidib 0.013 | Tubastatin A 0.12 | [1] 0.031 | defactinib -0.084 | rucaparib -0.097 | [2] -0.017 | encorafenib -0.07 | [3] 0.106 | filanesib -0.06 | zotarolimus -0.012 | idasanutlin 0.104 | alisertib -0.001 | [5] -0.134 | gefitinib 0.056 | [6] 0.025 | lapatinib 0.039 | pictilisib -0.13

ZBTB24 (UniProt O43167)
inactive: saracatinib -0.042 | sotrastaurin -0.039 | alvocidib 0.193 | Tubastatin A 0.193 | [1] -0.056 | rucaparib 0.119 | [2] 0.078 | encorafenib 0.055 | filanesib 0.239 | zotarolimus 0.007 | idasanutlin 0.102 | [5] -0.054 | lapatinib 0.096 | pictilisib 0.054

ZBTB43 (UniProt O43298)
inactive: saracatinib -0.147 | sotrastaurin 0.027 | Tubastatin A -0.018 | [1] -0.007 | defactinib 0.063 | rucaparib -0.272 | [2] -0.014 | encorafenib 0.065 | [3] 0.018 | [4] 0.094 | filanesib -0.024 | zotarolimus -0.036 | idasanutlin 0.002 | gefitinib 0.025 | pictilisib 0.027

XRN1 (UniProt Q8IZH2)
inactive: saracatinib -0.092 | alvocidib 0.184 | Tubastatin A 0.009 | defactinib 0.152 | rucaparib 0.614 | [2] 0.063 | encorafenib 0.355 | [3] -0.157 | [4] -0.03 | zotarolimus 0.021 | alisertib 0.114 | gefitinib 0.042 | [6] -0.355 | pictilisib -0.13

ZBTB33 (UniProt Q86T24)
inactive: saracatinib -0.006 | rucaparib -0.006 | [2] 0.048 | encorafenib -0.097

YIF1A (UniProt O95070)
inactive: saracatinib 0.01 | alvocidib 0.044 | Tubastatin A -0.052 | [1] 0.086 | defactinib -0.31 | [2] -0.125 | [3] -0.021 | [4] -0.076 | zotarolimus -0.056 | idasanutlin 0.124 | alisertib -0.012 | [5] 0.057 | gefitinib 0.095 | [6] 0.003 | lapatinib -0.12 | pictilisib -0.055

YPEL5 (UniProt P62699)
inactive: saracatinib 0.069 | sotrastaurin -0.102 | [1] 0.08 | defactinib -0.073 | rucaparib 0.002 | [2] -0.06 | encorafenib -0.001 | [3] -0.23 | [4] -0.269 | filanesib 0.413 | zotarolimus 0.05 | alisertib 0.086 | [5] 0.096 | gefitinib -0.239 | [6] -0.142 | lapatinib -0.113 | pictilisib 0.172
active: idasanutlin 0.491
